Sequences of proteins named here, by UniProt entry; tags and fusion partners are left off.
UniProt Q99623: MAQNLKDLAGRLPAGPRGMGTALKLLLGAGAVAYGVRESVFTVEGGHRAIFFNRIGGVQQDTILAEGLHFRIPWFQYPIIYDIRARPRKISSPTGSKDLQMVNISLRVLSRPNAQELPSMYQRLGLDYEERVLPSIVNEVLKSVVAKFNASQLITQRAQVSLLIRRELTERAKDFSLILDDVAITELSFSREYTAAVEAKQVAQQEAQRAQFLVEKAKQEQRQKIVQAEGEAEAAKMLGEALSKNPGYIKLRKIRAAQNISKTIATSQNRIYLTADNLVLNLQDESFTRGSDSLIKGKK

In PMC12507909:

Biological target: prohibitin-2 (PHB2) on JK-1 cells (human (endogenous in JK-1)) (UniProt Q99623)
Test: proximity labelling; JK-1 cells incubated with PvRBP1a_(158-650)LTID or LTID at 3 µM for 3 hours, washed, biotinylation buffer 15 minutes at 37°C; biotinylated proteins enriched on streptavidin magnetic beads and identified by DDA LC-MS, validated by PRM LC-MS; duplicates; only the binder purified

Q: For “PvRBP1a_(158-650)LTID fusion protein (from UniProt Q5DSE1) (domain or fragment)”, which binding is on record?
A: binds

Results are given in words; binding and its absence hold for the method and conditions named. Binding seen in cells or lysates may run through a third protein. A yes stands for co-enrichment or nearness to the bait. Other partners may have been found.
